# Laboratory results published in patent US20160208004A1.
# The chains behind the UniProt entries cited, without tags or fusion partners. Residues count along the entry.
# UniProt Q96F46, residues 33-320: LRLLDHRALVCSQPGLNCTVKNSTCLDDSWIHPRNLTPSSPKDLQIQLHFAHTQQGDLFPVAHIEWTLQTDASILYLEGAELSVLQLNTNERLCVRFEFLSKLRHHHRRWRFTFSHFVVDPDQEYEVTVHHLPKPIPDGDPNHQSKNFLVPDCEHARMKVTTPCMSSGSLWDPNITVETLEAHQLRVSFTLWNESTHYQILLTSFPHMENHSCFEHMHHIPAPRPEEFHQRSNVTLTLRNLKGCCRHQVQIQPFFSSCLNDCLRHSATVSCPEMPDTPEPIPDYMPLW
# These are yes or no findings as the source states them, for the method shown. Binding seen in cells or lysates may run through a third protein. Some binding calls cover weakened binding; strength is not graded here. Where a sequence is shown, tags or fusion partners need not be part of it.
# B1: IL-17RB.Fc (extracellular domain of human IL-17RB fused to the Fc region of human IgG) (Fc fusion, UniProt Q9NRM6 18-292, looked up, not shown: a dimerising Fc or GST)
# chain: REPTVQCGSETGPSPEWMLQHDLIPGDLRDLRVEPVTTSVATGDYSILMNVSWVLRADASIRLLKATKICVTGKSNFQSYSCVRCNYTEAFQTQTRPSGGKWTFSYIGFPVELNTVYFIGAHNIPNANMNEDGPSMSVNFTSPGCLDHIMKYKKKCVKAGSLWDPNITACKKNEETVEVNFTTTPLGNRYMALIQHSTIIGFSQVFEPHQKKQTRASVVIPVTGDSEGATVQLTPYFPTCGSDCIRHKGTVVLCPQTGVPFPLDNNKSKPGGWLP
# What was measured:
# [1] = biological target: IL-17RA.HIS (extracellular domain of human IL-17RA fused to a polyhistidine tag) (human) (UniProt Q96F46); assay: co-immunoprecipitation on Protein G beads, Western blot
# [2] = biological target: IL-17RA.HIS (extracellular domain of human IL-17RA fused to a polyhistidine tag) (human) (UniProt Q96F46); assay: co-immunoprecipitation, Western blot with anti-IL-17RA (FIG. 2)
binder,measurement,setting,value
B1,binding,[1],binds
same,binding,[2],binds
